In patent US20220213170A1 (Hubro Therapeutics AS, priority 2019, published 2022):

Assay: general procedure: Fmoc solid-phase peptide synthesis
Conditions: whole synthesis, TFA; for final HPLC purity: UPLC, Acquity UPLC BEH C18, PDA 210-500 nm

For “KCIMKEKKSLVRLSSCVPVALMSA (listed as Homo sapiens)”, the “final HPLC purity” value was 96%.
With “KCIMKEKKSLVRLSSCVPVALMSAMTTSSSQKN (listed as Homo sapiens)” the “crude HPLC purity” value (PDA 210-500 nm) was “around 75%”, the difficulty met (run 1) was “Only very small amounts of the desired peptide were obtained, and analysis by UPLC found that the peptide was impure” and the difficulty met (run 2) was “Again, only very small amounts of purified fsp5 (SEQ ID NO: 3) were obtained”. For the same sequence, the “final HPLC purity” value (run 1) was “about 90%” and the “final HPLC purity” value (run 2) was “below 50%”.
For “KGIMKEKKSLVRLSSCVPVALMSA (Modified peptide)”, the “final HPLC purity” value was 97%.
With SSCVPVALMSAMTTSSSQKN the “final HPLC purity” value was 94.8%.
In the case of SSGVPVALMSAMTTSSSQKN (Modified peptide), the “final HPLC purity” value is reported as 91.9%.

Where a sequence shows no end group, the ends are not given.
